Measured values as given in US20090312245.
Construct, isoform or probe ends are uncertain for at least one entry. For part of these data: Negatives hold for the conditions tested. For part of these data: Protein sequences can lack the tags named with them. For part of these data: The comparison behind a weaker result is the experiment's own reference, which may not be listed here. For part of these data: Results from cells or extracts need not show a direct contact.

Legend:
[1] = target: SLIRP (GST cleaved) (Homo sapiens) (UniProt Q9GZT3); experiment: EMSA; conditions: heparin and RNase T1; data not shown; purified recombinant protein; protein details: GST removed with PreScission protease; label: 32P-UTP
[2] = target: SLIRP R24,25A R24A,R25A (Homo sapiens) (UniProt Q9GZT3); experiment: EMSA; conditions: markedly reduced binding; purified recombinant protein; protein details: GST fusion; label: 32P-UTP
SHARP RRM region = target: T1, SHARP RRM region (UniProt Q96T58); experiment: EMSA; conditions: bound avidly under stringent conditions; purified recombinant protein; protein details: GST fusion; label: 32P-UTP
T1 sequence (looked up): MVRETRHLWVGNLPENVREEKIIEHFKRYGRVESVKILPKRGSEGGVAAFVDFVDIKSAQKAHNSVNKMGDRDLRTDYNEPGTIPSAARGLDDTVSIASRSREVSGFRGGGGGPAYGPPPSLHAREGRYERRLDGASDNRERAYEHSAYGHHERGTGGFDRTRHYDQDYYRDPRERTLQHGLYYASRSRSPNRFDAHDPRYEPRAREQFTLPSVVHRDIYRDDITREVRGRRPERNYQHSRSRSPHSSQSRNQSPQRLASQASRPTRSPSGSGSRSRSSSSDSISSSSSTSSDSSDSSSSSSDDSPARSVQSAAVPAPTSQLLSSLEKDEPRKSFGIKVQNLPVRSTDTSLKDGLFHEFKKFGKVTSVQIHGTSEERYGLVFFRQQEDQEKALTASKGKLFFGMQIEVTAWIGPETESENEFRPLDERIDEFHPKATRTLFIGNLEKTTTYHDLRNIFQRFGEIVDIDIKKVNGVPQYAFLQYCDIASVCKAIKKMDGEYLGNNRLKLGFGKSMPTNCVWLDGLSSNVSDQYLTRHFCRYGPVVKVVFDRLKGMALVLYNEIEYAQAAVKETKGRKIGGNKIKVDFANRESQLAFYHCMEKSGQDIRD

[3] = target: SLIRP L62A (Homo sapiens) (UniProt Q9GZT3); experiment: EMSA; conditions: markedly reduced binding; purified recombinant protein; protein details: GST fusion; label: 32P-UTP
[4] = target: SLIRP double mutant R24A,R25A,L62A (Homo sapiens) (UniProt Q9GZT3); experiment: EMSA; conditions: markedly reduced binding; purified recombinant protein; protein details: GST fusion; label: 32P-UTP
GST = GST (UniProt P08515); experiment: EMSA; conditions: purified recombinant protein; protein details: GST alone (pGEX-6P2); label: 32P-UTP
SLIRP (Homo sapiens) = SLIRP (Homo sapiens) (UniProt Q9GZT3); experiment: EMSA; conditions: purified recombinant protein; protein details: GST fusion (pGEX-6P2); label: 32P-UTP
SHARP repression domain = target: T2, SHARP repression domain (UniProt Q96T58); experiment: EMSA; conditions: purified recombinant protein; protein details: GST fusion; label: 32P-UTP
T2 sequence (looked up): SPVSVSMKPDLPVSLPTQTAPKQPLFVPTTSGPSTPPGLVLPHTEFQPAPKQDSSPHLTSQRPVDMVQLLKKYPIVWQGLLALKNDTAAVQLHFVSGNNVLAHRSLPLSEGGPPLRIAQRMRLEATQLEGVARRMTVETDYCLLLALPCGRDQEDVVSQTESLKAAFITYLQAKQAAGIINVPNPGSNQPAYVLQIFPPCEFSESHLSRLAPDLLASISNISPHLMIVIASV

[5] = target: SLIRP (yeast three-hybrid clone) (Homo sapiens) (UniProt Q9GZT3); experiment: binding assay; conditions: yeast three-hybrid screen; STR7 in MS2 hybrid RNA bait; protein in cells; protein details: cDNA library fusion, lacks first methionine; label: 32P-UTP

AGGAGGCAGGUAUGUGAUGACAUCAGCCGACGCCUGGCACUGCUGCAGGAACAGUGGGCUGGAGGAAAGUUGUCAAUACCUGUAAAGAA [SRA STR7]
binding result [1]: binds
binding result [2]: binds more weakly
binding result (SHARP RRM region): binds
binding result [3]: binds more weakly
binding result [4]: binds more weakly
binding result (GST): no binding
binding result (SLIRP (Homo sapiens)): binds
binding result (SHARP repression domain): no binding
binding result [5]: binds
